According to article PMC7878818:
No constants are given. Whether binding was seen depends on the method and setting. In cells and extracts the contact can be indirect. Some results given as binding are weak or reduced against the parent protein; the word gives no strength.

By UniProt entry, the sequences of proteins in these tests, tags left out.
UniProt Q9BUA3: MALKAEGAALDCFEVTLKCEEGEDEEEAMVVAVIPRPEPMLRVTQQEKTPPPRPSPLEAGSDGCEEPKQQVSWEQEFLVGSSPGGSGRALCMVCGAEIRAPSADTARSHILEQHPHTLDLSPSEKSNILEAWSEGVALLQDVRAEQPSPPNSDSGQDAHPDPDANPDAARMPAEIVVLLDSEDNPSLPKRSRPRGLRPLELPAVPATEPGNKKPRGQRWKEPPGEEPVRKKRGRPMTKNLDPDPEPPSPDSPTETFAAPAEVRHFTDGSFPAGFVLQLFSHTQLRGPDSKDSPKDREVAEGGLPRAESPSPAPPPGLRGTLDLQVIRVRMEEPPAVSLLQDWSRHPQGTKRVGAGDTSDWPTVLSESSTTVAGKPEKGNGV
UniProt Q99865: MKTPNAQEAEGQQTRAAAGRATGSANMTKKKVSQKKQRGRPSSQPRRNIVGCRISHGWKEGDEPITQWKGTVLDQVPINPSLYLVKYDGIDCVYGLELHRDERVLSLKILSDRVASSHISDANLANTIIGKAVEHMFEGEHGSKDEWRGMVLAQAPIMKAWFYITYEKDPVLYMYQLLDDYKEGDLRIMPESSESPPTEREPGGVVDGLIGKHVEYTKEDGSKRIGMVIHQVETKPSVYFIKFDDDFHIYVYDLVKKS
UniProt Q9BPZ2: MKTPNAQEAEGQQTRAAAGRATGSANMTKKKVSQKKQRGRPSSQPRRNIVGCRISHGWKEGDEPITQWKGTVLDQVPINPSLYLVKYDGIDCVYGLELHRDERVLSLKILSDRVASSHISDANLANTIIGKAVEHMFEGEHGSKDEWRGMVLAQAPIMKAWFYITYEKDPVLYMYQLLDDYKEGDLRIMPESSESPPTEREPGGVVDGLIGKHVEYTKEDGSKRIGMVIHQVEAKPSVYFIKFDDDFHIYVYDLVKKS
UniProt Q5JUX0: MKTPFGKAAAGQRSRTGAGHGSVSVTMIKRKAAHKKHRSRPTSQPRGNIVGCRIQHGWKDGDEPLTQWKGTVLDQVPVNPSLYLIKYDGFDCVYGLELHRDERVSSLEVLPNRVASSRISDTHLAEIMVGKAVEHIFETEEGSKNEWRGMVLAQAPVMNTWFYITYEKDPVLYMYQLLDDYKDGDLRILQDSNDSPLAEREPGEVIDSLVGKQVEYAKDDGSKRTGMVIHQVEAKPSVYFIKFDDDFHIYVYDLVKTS

biological target: C11orf84 (wild type, tagged, expressed in HEK293T cells) (human) (UniProt Q9BUA3); assay: co-IP; HEK293T co-transfected with Flag- and Myc-tagged plasmids; NP40 buffer (50 mM Tris pH 7.5, 150 mM NaCl, 1 mM EDTA, 1% NP40); anti-Flag M2 beads, 1 h; immunoblot

| binding | Substance |
| --- | --- |
| binds | Spindlin2A (from UniProt Q99865 1-258) |
| binds | Spindlin2B (from UniProt Q9BPZ2 1-258) |
| binds | Spindlin3 (from UniProt Q5JUX0 1-258) |
